Reference: the supplement of paper PMC10849652
The other results are listed elsewhere or left out. Residues, ends and D or L forms follow the SMILES beside them. *: point of attachment. Cbz = O=C(OCc1ccccc1)*

The chains behind the UniProt entries cited, without tags or fusion partners. Where a name states a change or a piece, a line headed by the entry shows the natural chain unless it says otherwise.
UniProt O60678: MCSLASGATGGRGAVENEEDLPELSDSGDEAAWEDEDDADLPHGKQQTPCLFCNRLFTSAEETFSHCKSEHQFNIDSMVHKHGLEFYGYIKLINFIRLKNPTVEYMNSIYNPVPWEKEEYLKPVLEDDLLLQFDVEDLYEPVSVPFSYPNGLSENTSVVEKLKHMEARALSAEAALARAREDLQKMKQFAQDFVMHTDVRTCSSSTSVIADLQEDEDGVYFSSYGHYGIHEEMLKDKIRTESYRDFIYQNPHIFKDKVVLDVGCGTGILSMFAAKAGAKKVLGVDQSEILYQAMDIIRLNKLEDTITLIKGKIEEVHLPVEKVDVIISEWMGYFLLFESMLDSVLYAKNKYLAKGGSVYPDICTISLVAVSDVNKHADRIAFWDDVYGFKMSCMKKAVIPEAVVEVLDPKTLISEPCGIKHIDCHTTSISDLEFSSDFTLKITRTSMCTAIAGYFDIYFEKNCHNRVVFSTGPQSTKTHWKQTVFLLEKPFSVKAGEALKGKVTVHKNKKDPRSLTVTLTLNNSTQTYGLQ
UniProt Q13523: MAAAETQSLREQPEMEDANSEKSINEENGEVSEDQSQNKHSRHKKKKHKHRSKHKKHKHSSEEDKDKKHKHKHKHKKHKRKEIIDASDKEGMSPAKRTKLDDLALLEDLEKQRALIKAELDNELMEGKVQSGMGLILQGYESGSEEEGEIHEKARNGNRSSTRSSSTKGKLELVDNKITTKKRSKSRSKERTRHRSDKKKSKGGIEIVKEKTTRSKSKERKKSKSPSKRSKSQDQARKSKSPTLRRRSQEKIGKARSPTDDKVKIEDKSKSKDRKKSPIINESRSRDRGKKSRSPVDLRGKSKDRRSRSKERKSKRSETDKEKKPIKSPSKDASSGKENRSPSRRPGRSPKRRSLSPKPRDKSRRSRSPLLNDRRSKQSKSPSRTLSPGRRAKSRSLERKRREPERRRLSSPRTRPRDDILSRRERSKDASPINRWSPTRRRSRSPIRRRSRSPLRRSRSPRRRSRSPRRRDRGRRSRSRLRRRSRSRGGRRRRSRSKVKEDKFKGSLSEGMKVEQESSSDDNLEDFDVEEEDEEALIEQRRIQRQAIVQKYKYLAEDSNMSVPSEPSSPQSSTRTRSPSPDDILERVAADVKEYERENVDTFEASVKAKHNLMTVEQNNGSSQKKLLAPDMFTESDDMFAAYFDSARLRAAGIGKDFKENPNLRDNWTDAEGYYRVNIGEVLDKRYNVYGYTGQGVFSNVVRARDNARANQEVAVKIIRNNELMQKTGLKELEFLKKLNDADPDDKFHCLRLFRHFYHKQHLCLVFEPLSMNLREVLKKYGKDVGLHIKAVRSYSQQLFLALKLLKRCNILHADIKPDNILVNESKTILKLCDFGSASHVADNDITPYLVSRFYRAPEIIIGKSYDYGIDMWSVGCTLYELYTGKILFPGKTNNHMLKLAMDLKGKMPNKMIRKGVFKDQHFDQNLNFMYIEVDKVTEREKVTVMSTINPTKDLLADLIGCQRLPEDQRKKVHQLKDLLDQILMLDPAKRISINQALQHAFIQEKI
UniProt Q9BZL6: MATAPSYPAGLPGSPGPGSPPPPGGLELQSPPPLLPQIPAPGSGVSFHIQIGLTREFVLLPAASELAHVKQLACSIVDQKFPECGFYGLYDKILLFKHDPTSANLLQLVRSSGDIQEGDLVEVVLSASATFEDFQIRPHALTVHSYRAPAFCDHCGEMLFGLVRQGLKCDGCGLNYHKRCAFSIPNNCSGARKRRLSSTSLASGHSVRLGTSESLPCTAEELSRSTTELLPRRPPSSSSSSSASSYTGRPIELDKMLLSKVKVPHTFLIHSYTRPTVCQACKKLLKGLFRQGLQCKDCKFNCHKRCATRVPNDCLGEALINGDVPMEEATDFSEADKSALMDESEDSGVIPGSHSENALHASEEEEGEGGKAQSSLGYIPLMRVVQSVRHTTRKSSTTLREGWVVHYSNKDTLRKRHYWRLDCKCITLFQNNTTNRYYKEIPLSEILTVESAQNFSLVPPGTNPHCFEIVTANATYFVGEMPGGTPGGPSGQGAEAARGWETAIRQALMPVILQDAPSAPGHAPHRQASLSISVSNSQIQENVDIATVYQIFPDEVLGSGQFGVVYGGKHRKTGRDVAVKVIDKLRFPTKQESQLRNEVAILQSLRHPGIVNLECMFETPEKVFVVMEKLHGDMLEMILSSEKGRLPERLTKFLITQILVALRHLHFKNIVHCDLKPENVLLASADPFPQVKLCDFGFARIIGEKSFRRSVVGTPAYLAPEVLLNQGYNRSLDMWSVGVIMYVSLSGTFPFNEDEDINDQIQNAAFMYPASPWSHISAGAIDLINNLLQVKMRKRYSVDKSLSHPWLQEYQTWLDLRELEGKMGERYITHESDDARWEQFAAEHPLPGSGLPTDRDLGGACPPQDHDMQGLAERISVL
UniProt Q8WWY3: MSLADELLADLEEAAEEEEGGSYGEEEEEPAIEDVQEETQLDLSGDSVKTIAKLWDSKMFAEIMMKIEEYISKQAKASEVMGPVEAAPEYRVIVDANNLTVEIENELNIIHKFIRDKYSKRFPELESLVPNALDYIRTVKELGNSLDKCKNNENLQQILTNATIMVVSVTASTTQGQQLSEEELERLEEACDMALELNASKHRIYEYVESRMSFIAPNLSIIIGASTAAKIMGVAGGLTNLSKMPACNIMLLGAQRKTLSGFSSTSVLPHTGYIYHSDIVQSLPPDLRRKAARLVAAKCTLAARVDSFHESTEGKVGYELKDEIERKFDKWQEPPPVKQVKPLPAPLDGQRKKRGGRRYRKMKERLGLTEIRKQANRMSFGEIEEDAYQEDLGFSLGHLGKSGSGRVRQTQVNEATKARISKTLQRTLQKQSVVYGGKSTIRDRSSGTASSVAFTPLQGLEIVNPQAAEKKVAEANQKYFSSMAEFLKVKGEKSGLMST
UniProt P05771, whole entry, looked up: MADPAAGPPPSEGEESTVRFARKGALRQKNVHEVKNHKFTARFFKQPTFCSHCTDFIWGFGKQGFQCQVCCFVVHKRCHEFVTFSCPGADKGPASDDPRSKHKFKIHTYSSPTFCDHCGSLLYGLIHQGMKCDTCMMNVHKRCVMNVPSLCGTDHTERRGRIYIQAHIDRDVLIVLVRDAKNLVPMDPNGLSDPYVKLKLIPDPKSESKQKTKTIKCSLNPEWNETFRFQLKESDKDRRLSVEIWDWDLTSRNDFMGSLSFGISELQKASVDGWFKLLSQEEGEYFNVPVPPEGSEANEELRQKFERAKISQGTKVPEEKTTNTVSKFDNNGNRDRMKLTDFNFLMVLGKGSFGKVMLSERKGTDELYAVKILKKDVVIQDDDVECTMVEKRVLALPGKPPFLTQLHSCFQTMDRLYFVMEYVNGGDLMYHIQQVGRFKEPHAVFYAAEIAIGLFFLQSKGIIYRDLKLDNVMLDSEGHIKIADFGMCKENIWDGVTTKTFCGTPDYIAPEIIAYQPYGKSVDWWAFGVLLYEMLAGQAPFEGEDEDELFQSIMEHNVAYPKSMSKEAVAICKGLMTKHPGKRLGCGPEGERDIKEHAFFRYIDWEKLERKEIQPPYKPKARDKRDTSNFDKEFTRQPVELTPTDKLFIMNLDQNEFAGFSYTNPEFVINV
UniProt Q8TAP8: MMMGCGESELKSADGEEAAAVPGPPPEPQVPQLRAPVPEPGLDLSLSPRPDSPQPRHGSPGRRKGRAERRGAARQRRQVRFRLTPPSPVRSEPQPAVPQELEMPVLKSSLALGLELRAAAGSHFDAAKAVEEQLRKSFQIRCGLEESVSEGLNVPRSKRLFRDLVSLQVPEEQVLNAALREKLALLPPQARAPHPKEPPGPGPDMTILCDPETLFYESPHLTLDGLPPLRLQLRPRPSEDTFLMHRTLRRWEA
UniProt P31323, whole entry, looked up: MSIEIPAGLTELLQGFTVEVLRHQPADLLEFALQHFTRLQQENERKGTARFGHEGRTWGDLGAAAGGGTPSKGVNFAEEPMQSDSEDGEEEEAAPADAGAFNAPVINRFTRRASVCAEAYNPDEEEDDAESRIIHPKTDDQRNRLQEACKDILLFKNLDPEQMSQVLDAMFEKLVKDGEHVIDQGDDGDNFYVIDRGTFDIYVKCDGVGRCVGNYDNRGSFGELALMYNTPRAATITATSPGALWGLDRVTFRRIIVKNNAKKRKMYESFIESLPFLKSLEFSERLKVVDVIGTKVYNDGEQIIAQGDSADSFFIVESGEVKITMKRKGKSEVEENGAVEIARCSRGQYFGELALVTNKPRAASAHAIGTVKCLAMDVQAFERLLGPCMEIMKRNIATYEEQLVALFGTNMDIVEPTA
UniProt Q5VTL8: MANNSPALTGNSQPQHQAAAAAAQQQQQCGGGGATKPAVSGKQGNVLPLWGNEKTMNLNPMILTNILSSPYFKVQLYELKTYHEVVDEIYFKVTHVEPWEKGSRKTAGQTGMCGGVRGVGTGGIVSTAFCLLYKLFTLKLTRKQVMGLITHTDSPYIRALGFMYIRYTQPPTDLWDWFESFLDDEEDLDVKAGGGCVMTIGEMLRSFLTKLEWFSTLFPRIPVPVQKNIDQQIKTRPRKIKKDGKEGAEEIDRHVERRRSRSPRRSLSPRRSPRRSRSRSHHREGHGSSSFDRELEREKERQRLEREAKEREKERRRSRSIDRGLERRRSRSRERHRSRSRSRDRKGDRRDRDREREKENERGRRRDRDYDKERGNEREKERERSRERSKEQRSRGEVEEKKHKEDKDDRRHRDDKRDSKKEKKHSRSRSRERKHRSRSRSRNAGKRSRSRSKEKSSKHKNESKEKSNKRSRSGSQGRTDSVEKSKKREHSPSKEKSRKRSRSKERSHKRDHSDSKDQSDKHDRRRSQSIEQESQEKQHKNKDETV
UniProt Q5MIZ7: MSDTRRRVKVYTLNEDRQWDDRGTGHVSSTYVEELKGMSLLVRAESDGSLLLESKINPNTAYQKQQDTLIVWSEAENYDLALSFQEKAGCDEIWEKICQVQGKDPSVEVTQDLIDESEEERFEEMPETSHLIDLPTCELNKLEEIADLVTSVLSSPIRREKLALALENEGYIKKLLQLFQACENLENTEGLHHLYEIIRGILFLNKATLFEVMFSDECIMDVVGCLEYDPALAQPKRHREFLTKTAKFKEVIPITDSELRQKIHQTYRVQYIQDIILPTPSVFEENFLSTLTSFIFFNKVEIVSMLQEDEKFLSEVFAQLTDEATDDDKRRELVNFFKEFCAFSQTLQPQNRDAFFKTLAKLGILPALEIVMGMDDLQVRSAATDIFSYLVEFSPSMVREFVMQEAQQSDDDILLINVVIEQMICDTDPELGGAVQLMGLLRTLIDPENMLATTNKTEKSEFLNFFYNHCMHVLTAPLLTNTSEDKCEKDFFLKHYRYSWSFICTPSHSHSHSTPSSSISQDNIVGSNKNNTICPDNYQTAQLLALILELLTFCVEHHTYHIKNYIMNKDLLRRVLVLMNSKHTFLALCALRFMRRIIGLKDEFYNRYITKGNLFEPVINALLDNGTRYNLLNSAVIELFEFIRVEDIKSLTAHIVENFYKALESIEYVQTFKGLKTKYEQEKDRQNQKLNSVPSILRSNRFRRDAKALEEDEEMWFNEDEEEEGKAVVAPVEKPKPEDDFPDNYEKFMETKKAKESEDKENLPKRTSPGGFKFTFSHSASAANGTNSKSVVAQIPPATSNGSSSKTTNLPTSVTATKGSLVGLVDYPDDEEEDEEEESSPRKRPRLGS
UniProt Q9HCU5: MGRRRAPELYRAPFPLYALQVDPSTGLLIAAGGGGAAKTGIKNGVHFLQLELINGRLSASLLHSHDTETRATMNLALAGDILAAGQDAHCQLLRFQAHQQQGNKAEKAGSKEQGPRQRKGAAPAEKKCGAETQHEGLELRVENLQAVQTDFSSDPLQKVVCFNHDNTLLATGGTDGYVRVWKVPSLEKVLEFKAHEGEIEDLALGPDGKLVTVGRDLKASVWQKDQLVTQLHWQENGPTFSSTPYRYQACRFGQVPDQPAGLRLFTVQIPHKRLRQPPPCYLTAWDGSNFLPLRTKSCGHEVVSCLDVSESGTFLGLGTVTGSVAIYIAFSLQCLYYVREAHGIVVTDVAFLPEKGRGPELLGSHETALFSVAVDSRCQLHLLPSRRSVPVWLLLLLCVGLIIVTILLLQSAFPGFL
UniProt P54619: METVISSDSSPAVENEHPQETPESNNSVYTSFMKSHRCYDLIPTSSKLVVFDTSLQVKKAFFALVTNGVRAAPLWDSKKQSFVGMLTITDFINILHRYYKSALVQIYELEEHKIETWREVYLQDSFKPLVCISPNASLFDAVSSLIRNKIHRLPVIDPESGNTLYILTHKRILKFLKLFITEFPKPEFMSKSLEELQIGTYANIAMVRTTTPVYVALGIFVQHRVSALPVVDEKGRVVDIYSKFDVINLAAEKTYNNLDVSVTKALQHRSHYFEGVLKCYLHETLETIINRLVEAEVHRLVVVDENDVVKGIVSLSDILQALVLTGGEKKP

Tests used:
Assay in all cases: log2 fold change, soluble protein after heating vs DMSO (PISA); higher = thermal stabilisation; K562 cells, 10 uM, 30 min; active = over 0.2 and 3.5 SD of the protein, either way, in both replicates (recomputed)
[1] = compound: C#Cc1cccc(Nc2ncnc3cc(OCCOC)c(OCCOC)cc23)c1 [erlotinib]
Summary of the method: (§1)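 Soluble protein was defined as the supernatant after 21,000xg for 90 min. It came from K562 cells at 2×10^6 cells/mL given 10 μM compound for 30 min, heated in aliquots for 3 min across 48°C-58°C, pooled, and extracted in PBS with 0.5% NP-40 at 4°C, and was quantified by TMTpro 16plex LC-MS/MS with equalised channel sums. Thermal stability against control samples, from duplicates, is reported as log2 fold change.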

[2] = compound: C/C(=N\NC(=O)C1=CC(=CC=C1)S(=O)(=O)N2CCOCC2)/C3=C(C=CC(=C3)Cl)O
Summary of the method: as §1

[3] = compound: C1=CC(=C(C=C1Cl)C2=NC3=NC=CN=C3C(=N2)NC4=CC=NC=C4)F
Summary of the method: as §1

[4] = compound: C1=CC(=CC=C1C2=NC3=C(N2)C=C(C=C3)C(=O)N)OC4=CC=C(C=C4)Cl
Summary of the method: as §1

[5] = compound: C1=CC2=C(C=CC(=C2)/C=C\3/C(=O)NC(=NCC4=CC=CS4)S3)N=C1
Summary of the method: as §1

[6] = compound: C1=CC2=NC=CN=C2C=C1/C=C/3\C(=O)NC(=O)S3
Summary of the method: as §1

[7] = compound: C1=CC=C(C=C1)C2=NC(=C(N2)C3=CC=NC=C3)C4=CC(=C(C=C4)Cl)O
Summary of the method: as §1

[8] = compound: C1=CC=C2C(=C1)C3=NNC4=CC=CC(=C43)C2=O
Summary of the method: as §1

[9] = compound: C1CCN(C1)C(=O)NC2=CC=CC(=C2)NC3=NC=C(C(=N3)NCCC4=CN=CN4)Br
Summary of the method: as §1

[10] = compound: C1CN(CCC1(CC2=CC=C(C=C2)Cl)N)C3=NC=NC4=C3C=CN4
Summary of the method: as §1

[11] = compound: C1COCCN1CCN2C3=CC=CC=C3N=C2NC(=O)C4=CC(=CC=C4)[N+](=O)[O-] [IRAK-1-4 Inhibitor I]
Summary of the method: as §1

[12] = compound: C=CC(=O)N1CCC[C@@H](n2nc(-c3ccc(Oc4ccccc4)cc3)c3c(N)ncnc32)C1 [ibrutinib]
Summary of the method: as §1

[13] = compound: CC(=O)c1cnc2ccc(-c3cc(Cl)c(O)c(Cl)c3)nc2c1N[C@H]1CC[C@H](CN(C)C)CC1
Summary of the method: as §1

[14] = compound: CC(C)(C)Cn1c(N)nc2ccc(-c3[nH]c(C(C)(C)C)nc3-c3ccc(F)cc3)nc21 [ralimetinib]
Summary of the method: as §1

[15] = compound: CC(C)(O)CC(=O)NCCn1ccc2ncnc(Nc3ccc(Oc4cccc(C(F)(F)F)c4)c(Cl)c3)c21
Summary of the method: as §1

[16] = compound: CC(C)C1=C2N=C(C=C(N2N=C1)NCC3=CC=CC=C3)NCCCCCCN
Summary of the method: as §1

[17] = compound: CC(C)C[C@@H](C=O)NC(=O)[C@H](CC(C)C)NC(=O)[C@H](CC(C)C)NC(=O)OCc1ccccc1
Summary of the method: as §1

[18] = compound: CC(C)N(C[C@H]1O[C@@H](n2cnc3c(N)ncnc32)[C@H](O)[C@@H]1O)[C@H]1C[C@@H](CCc2nc3cc(C(C)(C)C)ccc3[nH]2)C1 [pinometostat]
Summary of the method: as §1

[19] = compound: CC1=C(C2=C(C=C1)C(=O)C3=CC=CC=C3N2CCCN)C
Summary of the method: as §1

[20] = compound: CC1=C(C(CC(=O)N1)C2=CC=C(C=C2)C(F)(F)F)C(=O)NC3=C(C=C4C(=C3)C=NN4)F
Summary of the method: as §1

Measured: log2 fold change

PRMT3 (UniProt O60678)
inactive: [1] -0.056 | [2] 0.147 | [3] 0.03 | [4] 0.027 | [5] 0.066 | [6] 0.011 | [7] 0.028 | [8] -0.003 | [9] -0.01 | [10] -0.089 | [11] 0 | [12] -0.102 | [13] -0.023 | [14] -0.028 | [15] -0.167 | [16] -0.189 | [17] 0.028 | [18] 0.003 | [19] 0.079

PRPF4B (UniProt Q13523)
inactive: [1] 0.002 | [2] 0.044 | [3] -0.213 | [4] 0.074 | [5] -0.046 | [6] -0.064 | [7] -0.14 | [8] -0.12 | [9] -0.103 | [10] -0.113 | [11] -0.126 | [12] -0.015 | [13] -0.263 | [14] -0.001 | [15] 0.138 | [16] -0.029 | [17] 0.077 | [18] 0.099 | [19] -0.209

PRKD2 isoform 3 (UniProt Q9BZL6)
inactive: [1] 0.04 | [2] 0.214 | [3] 0.022 | [4] 0.055 | [5] 0.003 | [6] 0.004 | [7] -0.126 | [8] -0.347 | [9] -0.04 | [10] -0.075 | [11] -0.046 | [12] -0.057 | [14] 0.089 | [15] -0.302 | [16] -0.216 | [17] 0.074 | [18] 0.056 | [19] -0.087
active: [13] -1.03

PRRC2C isoform 7 (UniProt Q9Y520)
inactive: [1] -0.086 | [2] -0.128 | [3] -0.263 | [4] 0.015 | [5] -0.051 | [6] -0.005 | [7] -0.051 | [8] -0.04 | [9] 0.037 | [10] -0.078 | [11] -0.059 | [12] 0.026 | [13] 0.062 | [14] 0.108 | [15] 0.052 | [16] 0.022 | [17] 0.075 | [18] 0.155 | [20] 0.015 | [19] -0.163

Three successive entries already listed, quoted:
PRPF4B (UniProt Q13523)
inactive: [1] 0.002 | [2] 0.044 | [3] -0.213 | [4] 0.074 | [5] -0.046 | [6] -0.064 | [7] -0.14 | [8] -0.12 | [9] -0.103 | [10] -0.113 | [11] -0.126 | [12] -0.015 | [13] -0.263 | [14] -0.001 | [15] 0.138 | [16] -0.029 | [17] 0.077 | [18] 0.099 | [19] -0.209

PRKD2 isoform 3 (UniProt Q9BZL6)
inactive: [1] 0.04 | [2] 0.214 | [3] 0.022 | [4] 0.055 | [5] 0.003 | [6] 0.004 | [7] -0.126 | [8] -0.347 | [9] -0.04 | [10] -0.075 | [11] -0.046 | [12] -0.057 | [14] 0.089 | [15] -0.302 | [16] -0.216 | [17] 0.074 | [18] 0.056 | [19] -0.087
active: [13] -1.03

PRRC2C isoform 7 (UniProt Q9Y520)
inactive: [1] -0.086 | [2] -0.128 | [3] -0.263 | [4] 0.015 | [5] -0.051 | [6] -0.005 | [7] -0.051 | [8] -0.04 | [9] 0.037 | [10] -0.078 | [11] -0.059 | [12] 0.026 | [13] 0.062 | [14] 0.108 | [15] 0.052 | [16] 0.022 | [17] 0.075 | [18] 0.155 | [20] 0.015 | [19] -0.163

Further entries follow.

PRKAR2A (UniProt P13861)
inactive: [1] -0.002 | [2] 0.013 | [3] -0.024 | [4] 0.062 | [5] 0.082 | [6] -0.005 | [7] -0.021 | [8] -0.004 | [9] -0.177 | [11] 0.006 | [12] 0.013 | [14] 0.047 | [15] -0.036 | [16] -0.002 | [17] -0.023 | [18] 0.074 | [19] 0.058
active: [10] -0.486 | [13] -0.696

PPP1CA (UniProt P62136)
inactive: [1] 0.026 | [2] -0.002 | [3] -0.015 | [4] -0.006 | [5] 0.036 | [6] -0.005 | [7] 0.001 | [8] -0.03 | [9] -0.004 | [10] 0.009 | [11] 0.041 | [12] -0.02 | [13] -0.018 | [14] -0.012 | [15] 0.007 | [16] 0.015 | [17] 0.009 | [18] -0.071 | [19] -0.007

PRPF31 (UniProt Q8WWY3)
inactive: [1] 0.105 | [2] 0.194 | [3] 0.05 | [4] 0 | [5] 0.217 | [6] 0 | [7] 0.027 | [8] 0.076 | [9] -0.067 | [10] 0.129 | [11] -0.066 | [12] -0.028 | [13] -0.3 | [14] 0.069 | [15] -0.144 | [16] -0.387 | [17] 0.004 | [18] 0 | [19] -0.271

PRKCB isoform 2 (UniProt P05771)
inactive: [1] 0.038 | [2] 0.031 | [3] 0.038 | [4] 0 | [5] 0.086 | [6] 0.004 | [7] 0.021 | [8] 0.037 | [9] 0 | [10] -0.067 | [11] 0.027 | [12] -0.009 | [14] 0.022 | [15] -0.057 | [16] -0.049 | [17] 0.028 | [18] 0.014 | [19] -0.025
active: [13] -0.373

PPP1R35 (UniProt Q8TAP8)
inactive: [1] 0.137 | [2] -0.064 | [3] -0.038 | [4] 0.029 | [5] 0.01 | [6] 0.034 | [7] 0.021 | [8] -0.031 | [9] 0.009 | [10] 0.001 | [11] -0.055 | [12] -0.057 | [13] -0.069 | [14] -0.007 | [15] -0.026 | [16] -0.049 | [17] 0.036 | [18] -0.021 | [19] -0.049

PRKAR2B (UniProt P31323)
inactive: [1] -0.017 | [2] 0.066 | [3] -0.082 | [4] 0.16 | [5] -0.004 | [6] 0.012 | [7] -0.058 | [8] -0.083 | [11] -0.038 | [12] -0.011 | [14] -0.039 | [15] -0.007 | [16] -0.068 | [17] 0.044 | [18] 0.108 | [19] 0.022
active: [9] -0.449 | [10] -0.636 | [13] -0.833

PRPF38B (UniProt Q5VTL8)
active: [13] -0.646
inactive: [1] -0.016 | [2] 0.022 | [3] -0.049 | [4] 0.082 | [5] -0.184 | [6] -0.085 | [7] -0.027 | [8] -0.146 | [9] -0.018 | [10] -0.054 | [11] -0.158 | [12] -0.005 | [14] -0.025 | [15] 0.045 | [16] -0.06 | [17] 0.03 | [18] -0.029 | [19] 0.159

PPP4R3B (UniProt Q5MIZ7)
inactive: [1] 0.022 | [2] 0.023 | [3] 0.013 | [4] -0.023 | [5] 0.083 | [6] 0.028 | [7] -0.023 | [8] -0.019 | [9] -0.003 | [10] -0.027 | [11] 0.027 | [12] -0.024 | [13] -0.018 | [14] -0.014 | [15] 0.095 | [16] -0.069 | [17] -0.023 | [18] -0.021 | [19] -0.069

PPP6R1 (UniProt Q9UPN7)
inactive: [1] -0.022 | [2] -0.017 | [3] 0.013 | [4] -0.004 | [5] 0.025 | [6] 0.012 | [7] -0.022 | [8] -0.039 | [9] -0.014 | [10] 0.033 | [11] 0 | [12] 0.009 | [13] 0.039 | [14] -0.01 | [15] -0.031 | [16] -0.077 | [17] 0.038 | [18] -0.047 | [19] -0.041

PRCP (UniProt P42785)
inactive: [1] -0.028 | [2] 0.013 | [3] 0.049 | [4] -0.025 | [5] -0.052 | [6] 0.014 | [7] -0.019 | [8] -0.001 | [9] 0.038 | [10] 0.052 | [11] 0.04 | [12] 0.012 | [13] 0.014 | [14] -0.01 | [15] -0.072 | [16] -0.077 | [17] -0.025 | [18] -0.006 | [19] -0.101

PREB (UniProt Q9HCU5)
inactive: [1] 0.082 | [2] -0.021 | [3] 0.016 | [4] 0.028 | [5] -0.007 | [6] 0.043 | [7] 0.011 | [8] -0.042 | [9] 0.001 | [10] 0.04 | [11] 0.014 | [12] 0.031 | [13] 0.006 | [14] -0.004 | [15] 0.005 | [16] -0.021 | [17] -0.023 | [18] 0.001 | [20] -0.023 | [19] 0.029

PRKAG1 isoform 3 (UniProt P54619)
active: [13] -0.266
inactive: [1] 0.025 | [2] 0.038 | [3] -0.016 | [4] -0.012 | [5] 0.083 | [6] 0.032 | [7] 0.037 | [8] -0.015 | [9] -0.007 | [10] 0.045 | [11] 0.042 | [12] -0.019 | [14] 0.001 | [15] -0.011 | [16] -0.067 | [17] -0.025 | [18] 0.015 | [19] 0.013

PRKACB isoform 2 (UniProt P22694)
inactive: [1] 0.013 | [2] 0.049 | [3] -0.065 | [4] 0.072 | [5] 0.007 | [6] 0.008 | [7] -0.034 | [8] -0.096 | [9] -0.095 | [10] 0.007 | [11] -0.007 | [12] -0.032 | [13] -0.067 | [14] -0.035 | [15] -0.011 | [16] -0.012 | [17] 0.054 | [18] -0.008 | [19] 0.044
